Reference: publication PMC8894945

T1: triple HA-tagged uL5c (chloroplast ribosomal protein uL5c) (Chlamydomonas reinhardtii) (UniProt Q8HTL1)
T1 sequence: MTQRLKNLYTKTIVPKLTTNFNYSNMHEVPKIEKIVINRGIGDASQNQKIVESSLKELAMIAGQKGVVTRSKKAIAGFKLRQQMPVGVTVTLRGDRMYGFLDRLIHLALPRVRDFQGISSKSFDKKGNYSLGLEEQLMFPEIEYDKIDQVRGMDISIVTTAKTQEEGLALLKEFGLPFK


What follows are binders tested against T1, triple HA-tagged uL5c (chloroplast ribosomal protein uL5c) (Chlamydomonas reinhardtii) (assay: affinity purification with mass spectrometry; as a1, the control condition alone: cells kept at 25°C, no heat).

Binder	binding
YCF3 (protein, UniProt O20031 1-172) MPRTQRNDNFIDKTFTVVADILLKVLPTSQREKQAFSYYRNGMSAQAEGEYAEALQNYYEAMRLEVDAYDRSYILYNIGLIHTSNGEHGRALEYYYQALERNPSLSSALNNIAVIYHYRGEQAIENGQSEISQILFEKAADYWKEAIRLAPTNYIEALNWLKMTGRLTGLAT	no binding (only control conditions (25°C, no heat))

Each binder was assayed against T1, triple HA-tagged uL5c (chloroplast ribosomal protein uL5c) (Chlamydomonas reinhardtii) (assay: affinity purification with mass spectrometry; triple-HA-tagged uL5c (chloroplast ribosomes) as bait; cells cross-linked in vivo with 0.37% formaldehyde for 10 min; cells at 25°C (control) or 15 min / 180 min at 40°C; enrichment over untagged control (one-sided t-test, FDR < 0.05, S0 = 1) in at least one condition).

Binder	binding
PSAG (protein, UniProt P14224 31-126) ALDPQIVISGSTAAFLAIGRFVFLGYQRREANFDSTVGPKTTGATYFDDLQKNSTIFATNDPAGFNIIDVAGWGALGHAVGFAVLAINSLQGANLS	binds
CHLB (protein, UniProt P36437 1-687) MKLAYWMYAGPAHIGVLRVSSSFKNVHAIMHAPLGDDYFNVMRSMLERERDFTPVTASIVDRHVLARGSQEKVVENITRKNKEETPDLILLTPTCTSSILQEDLHNFVESALAKPVQIDEHADHKVTQQSALSSVSPLLPLEENTLIVSELDKKLSPSSKLHINMPNICIPEGEGEGEQTKNSIFVKSATLTNLSEEELLNQEHHTKTRNHSDVILADVNHYRVNELQAADRTLEQIVRYYISQAQKQNCLNITKTAKPSVNIIGIFTLGFHNQHDCRELKRLFNDLGIQINEIIPEGGNVHNLKKLPQAWFNFVPYREIGLMTAMYLKSEFNMPYVAITPMGLIDTAACIRSICKIITTQLLNQTATVQEPSKFIYPKATSLEQTNILETSQKETILKDNPDSGNTLSTTVEEIETLFNKYIDQQTRFVSQAAWFSRSIDCQNLTGKKAVVFGDATHSAAMTKLLAREMGIKVSCAGTYCKHDADWFREQVSGFCDQVLITDDHTQVGDMIAQLEPAAIFGTQMERHVGKRLDIPCGVISAPVHIQNFPLGYRPFLGYEGTNQIADLVYNSFNLGMEDHLLQIFGGHDSENNSSIATHLNTNNAINLAPGYLPEGEGSSRTSNVVSTISSEKKAIVWSPEGLAELNKVPGFVRGKVKRNTEKYALQKNCSMITVEVMYAAKEALSA	binds
CHLN (protein, UniProt P29683 1-545) MKPLKLKRLIMENNKSHATNLSLGGPFQGNCMPINQYFSKNQPNRGSSSSEKRSSLLPLWESKNAADGFSIVSHNVLLDGATTILNLNSFFECETGNYHTFCPISCVAWLYQKIEDSFFLVIGTKTCGYFLQNALGVMIFAEPRYAMAELEESDISAQLNDYKELKRLCLQIKQDRNPSVIVWIGTCTTEIIKMDLEGMAPRLETEIGIPIVVARANGLDYAFTQGEDTVLSAMALASLKKDVPFLVGNTGLTNNQLLLEKSTSSVNGTDGKELLKKSLVLFGSVPSTVTTQLTLELKKEGINVSGWLPSANYKDLPTFNKDTLVCGINPFLSRTATTLMRRSKCTLICAPFPIGPDGTRVWIEKICGAFGINPSLNPITGNTNLYDREQKIFNGLEDYLKLLRGKSVFFMGDNLLEISLARFLTRCGMIVYEIGIPYLDKRFQAAELALLEQTCKEMNVPMPRIVEKPDNYYQIRRIRELKPDLTITGMAHANPLEARGITTKWSVEFTFAQIHGFTNTREILELVTQPLRRNLMSNQSVNAIS	binds

The next lines start with the values.

binding	Binder
binds	YCF3 (protein, UniProt O20031 1-172) MPRTQRNDNFIDKTFTVVADILLKVLPTSQREKQAFSYYRNGMSAQAEGEYAEALQNYYEAMRLEVDAYDRSYILYNIGLIHTSNGEHGRALEYYYQALERNPSLSSALNNIAVIYHYRGEQAIENGQSEISQILFEKAADYWKEAIRLAPTNYIEALNWLKMTGRLTGLAT
binds	PSAK (protein, UniProt P14225 27-113) DGFIGSSTNLIMVASTTATLAAARFGLAPTVKKNTTAGLKLVDSKNSAGVISNDPAGFTIVDVLAMGAAGHGLGVGIVLGLKGIGAL

Results are given in words; binding and its absence hold for the method and conditions named. In cells and extracts the contact can be indirect. A yes stands for co-enrichment or nearness to the bait. Other partners may have been found. For part of these data: No binding means not detected with the bait. Sequences can lack the tags named with a protein.
